Results published in patent publication US20130123281A1, “Compositions and Methods for Inhibition of TBL-1 Binding to Disease-Associated Molecules” (BETA CAT PHARMACEUTICALS, LLC, priority 2011, published 2013).

The chains behind the UniProt entries cited, without tags or fusion partners.
UniProt O60907, whole entry: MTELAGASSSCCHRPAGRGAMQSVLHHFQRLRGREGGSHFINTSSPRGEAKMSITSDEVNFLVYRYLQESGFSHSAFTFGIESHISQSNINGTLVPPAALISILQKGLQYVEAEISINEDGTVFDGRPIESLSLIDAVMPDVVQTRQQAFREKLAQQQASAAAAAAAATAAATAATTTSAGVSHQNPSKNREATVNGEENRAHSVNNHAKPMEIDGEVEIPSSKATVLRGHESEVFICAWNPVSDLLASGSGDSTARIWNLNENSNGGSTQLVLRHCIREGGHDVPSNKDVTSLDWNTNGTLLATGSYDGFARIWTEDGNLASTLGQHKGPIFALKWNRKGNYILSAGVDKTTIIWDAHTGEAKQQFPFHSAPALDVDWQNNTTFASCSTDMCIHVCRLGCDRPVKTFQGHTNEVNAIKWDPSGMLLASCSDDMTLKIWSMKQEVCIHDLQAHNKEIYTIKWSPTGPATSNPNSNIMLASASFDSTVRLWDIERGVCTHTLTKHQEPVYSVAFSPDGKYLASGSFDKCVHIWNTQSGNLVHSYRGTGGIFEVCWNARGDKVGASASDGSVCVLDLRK

Tests used:
TBL1 = TBL1 (Homo sapiens, UniProt O60907); experiment: TBL1 inhibition (Table 5); type: binding; details: read-out: EC50 μM TBL1
Procedure: Briefly, for homologous competitive assay, a single concentration of 50 nM of biotinylated compound was added to the wells containing TBL1 recombinant protein, in the presence of various concentrations of unlinked compound (range of 0.1 nM to 10 μM) diluted in binding buffer. The sealed plate was incubated for 2 h at RT, and then processed as described above. For the heterologous competitive binding assay, 75 nM of β-catenin was used in place of the biotinylated compound, and the bounded protein was detected by anti-β-catenin antibody (Cell Signaling Tech) followed by secondary HRP-conjugated antibody.
To determine whether the ability of BC2059 to interfere with TBL1:β-catenin complex formation is due to direct interaction between TBL1 or β-catenin and the compound, we performed saturation binding assays in a in vitro system. […] The sealed plate was incubated for 2 h at RT, washed 3 times with PBS 0.05% Tween-20, and then the bounded compound was detected by streptavidin-HRP conjugated antibody (Cell Signaling Tech) diluted in blocking buffer. Elisa was developed by addition of ABTS HRP substrate (SIGMA), and the optical density (OD) for each well was read with a microplate reader set to 405 nm. […]

HCT116 cells = experiment: Cell screening in HCT116 cells (Table 5); type: cell-based; details: read-out: EC50 μM HCT116 CELLS
TBL1:β-catenin complex = TBL1:β-catenin complex (Homo sapiens, UniProt O60907); experiment: Sandwich ELISA capturing the TBL1:β-catenin complex from treated cell lysates; type: cell-based; details: read-out: EC50 μM TBL1: β-Catenine, compound 0.3 nM to 3 μM for 6 h
Procedure: HCT 15 cells are incubated with 20 mM LiCl to induce the Wnt pathway. After 24 h fresh medium with 20 mM LiCl and test agent is added at concentration in the range of 0.3 nM to 3 μM for 6 hours at 37° C. Protein lysates are prepared from cells lysed in RIPA buffer containing protease inhibitors, High affinity binding Sandwich Elisa assays were prepared in 96 well Maxisorp plates (NUNC) by coating with 100 μl in each well of unlabeled capture TBL1 antibody (Santa Cruz Biotech) diluted to a final concentration of 2 ug/ml in carbonate/bicarbonate coating buffer, and incubated 18 hours at 4° C. […] The sealed plate was incubated for 2 h at RT, washed 3 times with PBS 0.05% Tween-20, and then the complex and the recombinant protein was detected by antibody against β-catenin (Cell Signaling Tech) and secondary antibody HRP-conjugated (Sigma). Signal was detected by addition of ABTS HRP substrate
(SIGMA), and read with a microplate reader set to 405 nm.
To determine the amount of β-catenin captured, a standard curve was created using recombinant β-catenin (100 fg to 100 ng, Abnova) added instead of cell lysates in the above procedure. Intensity of signal was compared to values generated using test article treated lysates and approximate amount of bound beta catenin determined. […]

EC50 (TBL1): 0.22 µM
EC50 (HCT116 cells): 0.0843 µM
EC50 (TBL1:β-catenin complex): 0.21 µM
Structure (SMILES): Cc1nn(C)cc1-c1cccc(N(C)Cc2ccc(-n3cccn3)cc2)c1

The match of structure and compound is tentative.
